# Measured data: PubChem BioAssay AID1259254 (NCATS, 2017)
# Purpose: 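Genome-wide screen for genes that prevent DNA re-replication in cancer cells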 (primary screen)
# System: human HCT116 colorectal cancer cells
# Reagents: single siRNA against human genes
# Duration: 3 days
# Detection: 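Nuclei stained with Hoechst and imaged; cell-cycle phase assigned by DNA content; G2 share scaled per plate, non-targeting siRNA 0%, GMNN siRNA 100%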
# Scale: G2 robust z-score: higher = more G2 cells, more excess DNA replication
# Rule for the call: 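Active siRNAs have a G2 robust z of 5 or more median absolute deviations over the median, which in these data means about 38% or higher of GMNN control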
# This is an unselected part of about 59,000 reagents tested. Of all reagents, about 1,550 (2.6%) were called active. 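G2 share is only a proxy for re-replication; each gene was hit by three separate siRNAs, and active genes were retested.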 Unmarked entries are inactive. The numbers tell different reagents against one gene apart. Not all columns of the deposit are shown. Not given: the amount of reagent.
gene knocked down,reagent no.,G2 robust z-score
RCAN2,1,-1.38
RCAN2,2,-0.89
RCAN2,3,-0.808
HIF1AN,1,0.193
HIF1AN,2,0.00737
HIF1AN,3,1.16
FSD1,1,-0.24
FSD1,2,-1.08
FSD1,3,1.02
NDUFAB1,1,-1.11
NDUFAB1,2,0.243
NDUFAB1,3,-0.815
LOC644667,1,-0.735
LOC644667,2,0.00895
LOC644667,3,-0.396
MAGEA4,1,0.249
MAGEA4,2,3.65
MAGEA4,3,-0.915
PAN3,1,0.527
PAN3,2,1.84
PAN3,3,-0.0576
CTAG2,1,-0.519
CTAG2,2,3.79
CTAG2,3,2.25
WDR44,1,-0.214
WDR44,2,0.973
WDR44,3,1.18
PLCB1,1,0.122
PLCB1,2,0.701
PLCB1,3,-1.04
GDAP2,1,0.908
GDAP2,2,-0.899
GDAP2,3,-1.37
ZSWIM7,1,-0.51
ZSWIM7,2,0.301
ZSWIM7,3,-0.536
TBCA,1,-0.295
TBCA,2,-0.712
TBCA,3,0.376
TMEM143,1,-0.841
TMEM143,2,-1.55
TMEM143,3,2.73
LRP3,1,11.7 (active)
LRP3,2,-0.667
LRP3,3,-1.03
PANX3,1,0.969
PANX3,2,0.717
PANX3,3,-0.235
TMBIM4,1,4.67
TMBIM4,2,1.7
TMBIM4,3,1.94
SST,1,1.42
SST,2,-0.836
SST,3,1.38
HUNK,1,-0.976
HUNK,2,-1.2
HUNK,3,-0.498
OR6C4,1,5.74 (active)
OR6C4,2,-0.455
OR6C4,3,0.564
TDRP,1,0.505
TDRP,2,1.09
TDRP,3,1.5
SLC66A2,1,0.286
SLC66A2,2,1.19
SLC66A2,3,0.513
MYRFL,1,-0.21
MYRFL,2,-0.49
MYRFL,3,-0.578
